This test concerns the target T1, Flag-USP53 (ubiquitin-specific peptidase 53) (UniProt Q70EK8).
T1 sequence: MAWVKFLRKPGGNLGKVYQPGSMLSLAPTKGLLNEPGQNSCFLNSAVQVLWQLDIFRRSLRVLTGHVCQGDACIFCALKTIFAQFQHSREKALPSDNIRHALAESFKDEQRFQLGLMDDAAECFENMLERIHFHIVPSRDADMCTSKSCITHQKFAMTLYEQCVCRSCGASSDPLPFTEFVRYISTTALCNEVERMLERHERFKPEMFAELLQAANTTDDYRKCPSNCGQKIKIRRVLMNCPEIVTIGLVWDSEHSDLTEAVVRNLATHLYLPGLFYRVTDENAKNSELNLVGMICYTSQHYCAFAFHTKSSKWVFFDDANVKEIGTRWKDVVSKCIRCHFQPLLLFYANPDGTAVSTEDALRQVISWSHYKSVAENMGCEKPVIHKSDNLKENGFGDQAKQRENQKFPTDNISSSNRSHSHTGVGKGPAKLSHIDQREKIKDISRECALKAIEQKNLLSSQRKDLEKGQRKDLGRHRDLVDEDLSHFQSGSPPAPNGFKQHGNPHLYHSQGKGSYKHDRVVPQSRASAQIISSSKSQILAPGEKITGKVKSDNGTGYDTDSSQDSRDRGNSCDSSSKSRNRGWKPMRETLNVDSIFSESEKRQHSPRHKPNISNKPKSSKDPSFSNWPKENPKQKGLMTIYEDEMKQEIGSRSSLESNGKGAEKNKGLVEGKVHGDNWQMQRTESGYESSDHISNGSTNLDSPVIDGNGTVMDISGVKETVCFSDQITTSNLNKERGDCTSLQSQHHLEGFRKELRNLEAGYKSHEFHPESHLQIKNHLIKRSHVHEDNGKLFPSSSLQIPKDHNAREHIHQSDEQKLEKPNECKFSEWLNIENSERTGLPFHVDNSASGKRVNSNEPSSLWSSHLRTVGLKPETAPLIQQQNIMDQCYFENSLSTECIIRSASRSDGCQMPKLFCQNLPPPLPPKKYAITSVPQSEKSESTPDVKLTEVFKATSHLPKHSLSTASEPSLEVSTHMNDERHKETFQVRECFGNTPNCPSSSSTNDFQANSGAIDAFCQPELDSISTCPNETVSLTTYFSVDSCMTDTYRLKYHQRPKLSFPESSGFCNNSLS
The test is described as follows: co-IP; exogenous Co-IP: HA-CYCS and Flag-USP53 co-transfected into HEK-293T cells (text: HEK-293T, Huh-7 and HCCLM3); same protocol as the CO-IP/MS (IP buffer, anti-flag antibody or IgG, Protein A/G magnetic beads, 4 °C).

Amino acid sequences for entries named in this document (tags omitted).
UniProt P99999: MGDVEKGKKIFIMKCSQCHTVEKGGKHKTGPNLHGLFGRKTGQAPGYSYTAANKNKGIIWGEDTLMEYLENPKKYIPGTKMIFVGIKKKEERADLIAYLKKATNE

Results are given in words; binding and its absence hold for the method and conditions named. Binding seen in cells or lysates may run through a third protein. Some entries that bind do so weakly or less than the wild type. Where a sequence is shown, tags or fusion partners need not be part of it.

Regarding HA-CYCS (from UniProt P99999 1-105), the binding entry was “binds”.
